For test [1], the target named is endogenous Huntingtin (human (endogenous in primary fibroblasts and neurons)) (UniProt P42858). The test can be described thus: proximity ligation; Duolink PLA with polyclonal anti-Huntingtin Ab1173 and monoclonal anti-α-actinin-1 in fixed human Control 1 fibroblasts grown with or without serum.
For test [2] the target is unchanged. Put plainly: proximity ligation; Duolink PLA with polyclonal anti-Huntingtin Ab1173 and monoclonal anti-α-actinin-1 in fixed human neurons grown in defined medium.

Sequences of proteins named here, by UniProt entry; tags and fusion partners are left off.
UniProt P42858: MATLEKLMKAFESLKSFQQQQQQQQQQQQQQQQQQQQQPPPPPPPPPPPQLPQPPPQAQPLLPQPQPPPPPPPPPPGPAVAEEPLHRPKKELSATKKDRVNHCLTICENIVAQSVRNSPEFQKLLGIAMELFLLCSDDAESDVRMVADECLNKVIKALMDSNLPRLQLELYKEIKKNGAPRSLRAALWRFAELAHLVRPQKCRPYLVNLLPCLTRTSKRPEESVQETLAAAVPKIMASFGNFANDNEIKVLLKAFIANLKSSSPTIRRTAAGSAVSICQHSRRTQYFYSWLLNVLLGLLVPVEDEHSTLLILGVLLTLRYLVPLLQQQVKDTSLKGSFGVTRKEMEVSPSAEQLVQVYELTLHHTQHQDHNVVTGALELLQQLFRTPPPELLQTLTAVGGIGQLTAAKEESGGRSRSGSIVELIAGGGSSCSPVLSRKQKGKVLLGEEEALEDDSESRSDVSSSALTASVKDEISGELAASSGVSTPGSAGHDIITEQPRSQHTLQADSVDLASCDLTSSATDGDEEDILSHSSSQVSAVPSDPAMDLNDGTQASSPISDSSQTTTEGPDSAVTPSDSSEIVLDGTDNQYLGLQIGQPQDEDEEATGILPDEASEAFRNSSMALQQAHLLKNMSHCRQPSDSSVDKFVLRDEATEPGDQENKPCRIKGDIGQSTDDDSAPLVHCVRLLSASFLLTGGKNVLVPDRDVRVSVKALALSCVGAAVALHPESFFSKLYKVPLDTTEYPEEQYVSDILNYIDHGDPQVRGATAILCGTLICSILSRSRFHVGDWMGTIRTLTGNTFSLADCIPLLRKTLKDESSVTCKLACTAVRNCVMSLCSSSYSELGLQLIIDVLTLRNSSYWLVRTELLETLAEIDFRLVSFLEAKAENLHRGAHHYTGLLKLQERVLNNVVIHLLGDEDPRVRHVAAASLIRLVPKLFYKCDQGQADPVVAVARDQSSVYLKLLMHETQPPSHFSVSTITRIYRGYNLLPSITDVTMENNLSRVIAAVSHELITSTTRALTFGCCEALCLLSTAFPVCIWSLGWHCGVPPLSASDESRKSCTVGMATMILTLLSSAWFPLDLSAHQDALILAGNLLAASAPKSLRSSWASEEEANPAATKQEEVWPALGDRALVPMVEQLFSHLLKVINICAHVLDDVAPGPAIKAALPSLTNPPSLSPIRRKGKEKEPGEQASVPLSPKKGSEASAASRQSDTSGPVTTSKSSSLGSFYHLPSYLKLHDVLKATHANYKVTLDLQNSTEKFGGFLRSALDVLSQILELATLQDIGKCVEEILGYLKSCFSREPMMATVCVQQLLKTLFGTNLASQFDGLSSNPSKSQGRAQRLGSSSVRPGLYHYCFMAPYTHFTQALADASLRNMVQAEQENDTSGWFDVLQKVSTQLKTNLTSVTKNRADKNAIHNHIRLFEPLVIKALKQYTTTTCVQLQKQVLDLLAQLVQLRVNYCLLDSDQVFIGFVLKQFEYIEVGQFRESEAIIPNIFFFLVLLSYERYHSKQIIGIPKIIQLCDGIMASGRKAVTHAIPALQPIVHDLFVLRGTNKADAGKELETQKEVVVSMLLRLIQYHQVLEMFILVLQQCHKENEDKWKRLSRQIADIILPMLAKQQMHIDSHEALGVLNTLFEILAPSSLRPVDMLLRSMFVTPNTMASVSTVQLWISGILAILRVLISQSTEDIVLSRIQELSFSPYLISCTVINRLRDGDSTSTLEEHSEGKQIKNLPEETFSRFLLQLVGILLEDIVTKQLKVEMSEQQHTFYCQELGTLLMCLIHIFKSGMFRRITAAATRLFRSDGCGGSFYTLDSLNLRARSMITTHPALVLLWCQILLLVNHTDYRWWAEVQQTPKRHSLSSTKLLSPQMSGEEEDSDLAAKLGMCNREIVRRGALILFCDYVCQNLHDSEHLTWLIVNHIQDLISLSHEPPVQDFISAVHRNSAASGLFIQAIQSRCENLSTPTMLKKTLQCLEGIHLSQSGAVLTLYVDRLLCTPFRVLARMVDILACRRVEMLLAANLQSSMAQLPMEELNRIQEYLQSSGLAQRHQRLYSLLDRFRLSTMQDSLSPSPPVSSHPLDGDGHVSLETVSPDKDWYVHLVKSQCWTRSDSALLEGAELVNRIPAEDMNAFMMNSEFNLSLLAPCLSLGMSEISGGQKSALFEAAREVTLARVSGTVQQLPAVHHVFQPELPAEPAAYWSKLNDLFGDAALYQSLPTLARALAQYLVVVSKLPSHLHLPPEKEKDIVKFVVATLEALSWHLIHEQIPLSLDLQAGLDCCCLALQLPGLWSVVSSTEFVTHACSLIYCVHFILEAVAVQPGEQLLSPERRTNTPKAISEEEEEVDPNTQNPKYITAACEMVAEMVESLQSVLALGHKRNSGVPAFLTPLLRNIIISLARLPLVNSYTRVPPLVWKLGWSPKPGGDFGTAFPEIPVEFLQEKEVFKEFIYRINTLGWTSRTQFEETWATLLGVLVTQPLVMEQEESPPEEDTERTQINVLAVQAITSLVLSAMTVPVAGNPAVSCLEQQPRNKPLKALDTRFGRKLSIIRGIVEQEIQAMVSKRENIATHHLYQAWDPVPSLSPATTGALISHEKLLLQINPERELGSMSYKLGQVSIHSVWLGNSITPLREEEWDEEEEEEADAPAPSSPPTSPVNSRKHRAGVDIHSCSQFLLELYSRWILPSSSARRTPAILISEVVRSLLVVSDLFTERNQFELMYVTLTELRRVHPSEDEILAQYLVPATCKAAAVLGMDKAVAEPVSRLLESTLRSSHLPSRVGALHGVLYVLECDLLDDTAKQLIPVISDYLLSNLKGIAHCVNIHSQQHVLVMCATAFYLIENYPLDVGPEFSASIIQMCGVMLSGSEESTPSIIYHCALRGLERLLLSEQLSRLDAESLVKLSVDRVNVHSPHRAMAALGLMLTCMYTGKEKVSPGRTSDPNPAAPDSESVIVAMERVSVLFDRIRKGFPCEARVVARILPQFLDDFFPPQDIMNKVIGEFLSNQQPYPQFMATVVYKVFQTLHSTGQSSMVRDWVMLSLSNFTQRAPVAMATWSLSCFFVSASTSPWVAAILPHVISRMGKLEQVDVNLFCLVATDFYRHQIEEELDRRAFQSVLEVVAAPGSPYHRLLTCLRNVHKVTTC
UniProt P12814: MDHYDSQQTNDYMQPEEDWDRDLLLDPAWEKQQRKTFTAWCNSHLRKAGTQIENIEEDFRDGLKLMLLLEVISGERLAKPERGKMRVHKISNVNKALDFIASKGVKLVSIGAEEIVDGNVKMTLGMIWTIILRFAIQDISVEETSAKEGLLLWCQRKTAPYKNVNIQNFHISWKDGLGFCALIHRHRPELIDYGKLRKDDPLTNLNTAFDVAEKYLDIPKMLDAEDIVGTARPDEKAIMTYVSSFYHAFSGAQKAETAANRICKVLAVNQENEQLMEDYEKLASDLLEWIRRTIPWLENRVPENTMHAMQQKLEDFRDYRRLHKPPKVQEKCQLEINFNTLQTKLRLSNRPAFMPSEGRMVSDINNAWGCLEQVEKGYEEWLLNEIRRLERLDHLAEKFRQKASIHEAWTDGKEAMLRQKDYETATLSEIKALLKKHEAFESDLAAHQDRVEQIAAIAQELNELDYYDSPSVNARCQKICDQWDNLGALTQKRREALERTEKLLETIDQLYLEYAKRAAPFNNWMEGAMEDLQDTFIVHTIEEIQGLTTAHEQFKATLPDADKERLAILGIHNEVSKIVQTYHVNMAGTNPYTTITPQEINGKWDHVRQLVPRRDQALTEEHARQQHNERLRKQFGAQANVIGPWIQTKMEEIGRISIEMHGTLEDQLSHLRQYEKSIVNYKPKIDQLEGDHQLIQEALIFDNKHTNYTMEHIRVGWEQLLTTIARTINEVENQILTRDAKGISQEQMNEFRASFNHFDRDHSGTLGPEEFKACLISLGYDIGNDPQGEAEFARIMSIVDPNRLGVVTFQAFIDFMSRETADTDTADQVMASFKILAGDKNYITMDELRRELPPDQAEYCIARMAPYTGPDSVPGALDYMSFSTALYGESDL

Results are given in words; binding and its absence hold for the method and conditions named. In cells and extracts the contact can be indirect. Some binding calls cover weakened binding; strength is not graded here.

In the case of “endogenous α-actinin-1 (from UniProt P12814 1-892)”, the binding entry in test [1] and in test [2] was “binds” in each case.

(Values after publication PMC6377189.)
